Measurements from “University of Dundee, Small-Polar-MMV Screening Library” (2021), ChEMBL document CHEMBL3988442.

Chains of the proteins cited; added tags and fusions are not shown.
UniProt E9BF75, entry or part of it: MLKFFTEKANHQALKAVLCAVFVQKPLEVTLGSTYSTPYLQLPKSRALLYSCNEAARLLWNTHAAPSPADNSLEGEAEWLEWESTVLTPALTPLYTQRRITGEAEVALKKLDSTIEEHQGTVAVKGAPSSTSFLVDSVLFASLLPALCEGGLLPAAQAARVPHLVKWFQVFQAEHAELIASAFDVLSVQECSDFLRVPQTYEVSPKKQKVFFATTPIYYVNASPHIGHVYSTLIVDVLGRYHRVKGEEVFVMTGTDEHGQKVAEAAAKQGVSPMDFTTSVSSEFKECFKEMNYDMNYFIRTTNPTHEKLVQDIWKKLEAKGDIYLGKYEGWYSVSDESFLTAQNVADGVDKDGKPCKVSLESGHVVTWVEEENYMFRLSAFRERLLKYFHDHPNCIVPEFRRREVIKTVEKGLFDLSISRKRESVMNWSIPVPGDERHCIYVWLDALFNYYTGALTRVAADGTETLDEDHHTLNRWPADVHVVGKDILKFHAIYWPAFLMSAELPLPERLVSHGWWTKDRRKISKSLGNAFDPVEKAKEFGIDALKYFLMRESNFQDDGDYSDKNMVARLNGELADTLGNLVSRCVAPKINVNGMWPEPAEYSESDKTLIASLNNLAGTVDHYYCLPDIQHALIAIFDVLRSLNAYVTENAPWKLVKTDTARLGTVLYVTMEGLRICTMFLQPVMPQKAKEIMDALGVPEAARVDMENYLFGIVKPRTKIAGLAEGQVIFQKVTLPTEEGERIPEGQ

A: 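Assay on Mycobacterium tuberculosis, filed only as a heat shock assay from Cornell; the read-out is not stated. The concentration is filed as 10 mM, unlikely as a test dose, so the dose is not known. Higher reads as stronger inhibition (inferred: compounds with an IC50 in retests scored well above the rest). Of about 69,000 compounds tested this way, about 930 (1.4%) reached 50% or more in at least one test.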
B: 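Methionyl-tRNA synthetase (putative), Leishmania donovani (UniProt E9BF75). Primary screen of methionyl-tRNA synthetase; the read-out is not stated. The test concentration is not given. Values are per cent inhibition. Of about 68,000 compounds tested this way, about 24 (0.035%) reached 50% or more in at least one test.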
C: 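Whole-cell assay for inhibitors of Mycobacterium tuberculosis growth, labelled Cornell in the record; the read-out is not stated. The concentration is filed as 10 mM, unlikely as a test dose, so the dose is not known. Higher means stronger inhibition (inferred from two other growth screens of the library). Of about 53,000 compounds tested this way, about 900 (1.7%) reached 50% or more in at least one test.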

Results are percentages, as filed.
How 0% and 100% were set is not recorded. Most values in the screen are low, and negative values occur.
The compounds are a random part of those screened.
A dash means the value is not listed here; it may have been measured.

Result for COCCC1COC2(CCN(C(=O)c3ccco3)CC2)C1 (configuration not stated) was A: 8.242%; B: 21.95%. Result for O=S(=O)(c1ccccc1F)N1CCC(Oc2cccnn2)CC1 was A: 9.581%; B: 7.343%; C: 3.648%. With COCCCNC(=O)c1cc(-c2cnc(N3CCOCC3)nc2)cn1C.O=C(O)C(F)(F)F the screen gave A: 7.536%; C: 35.59%. CCCc1n[nH]c(C2CN(C(=O)c3cccc4[nH]ncc34)CCO2)n1 (configuration not stated) gave A: -2.969%; B: 14.8%; C: -20.33%. Cn1cnc2c1CCN(Cc1nc(-c3ccsc3)no1)C2 gave A: -13.64%; B: 13.65%; C: -1.608%. Result for C[C@]1(O)CCN(Cc2c[nH]cn2)C[C@@H]1Oc1cccc(F)c1 was A: -19.94%; B: 4.471%. COCc1ncn(Cc2nc(-c3ccc(OC)c(OC)c3)oc2C)n1 gave A: -11.04%; B: 9.317%; C: -14.66%. CNCc1n[nH]c(=O)n1-c1ccccc1Oc1ccccc1 gave A: 0.523%; B: 1.375%; C: 15.1%.

Result for O=C(NCC1CC1)C1CN(Cc2ccncc2)Cc2ccnn2C1 (configuration not stated) was B: 3.014%. Cn1ncnc1NCc1ccc(Br)cc1 read A: -19.71%; B: 16.1%; C: 39.25%. Result for O=C(O)C(F)(F)F.[H][C@]12CCCN(Cc3ccc(C)s3)[C@@]1([H])CN(C(=O)c1ccco1)C2 was A: -26.86%; C: 5.979%. With O=C(C1CCOc2ccccc21)N1CCOc2ccc(F)cc21 (configuration not stated) the screen gave A: 7.272%; B: 9.749%. With Cc1ncsc1C(=O)N(C)Cc1ccc(Br)o1 the screen gave A: -11.88%; B: 1.282%; C: 3.313%. O=C(O)C(F)(F)F.O=C(O)C(F)(F)F.O=C(O)c1cc2c(nc1N1CCCC1)CCN(C1CCOCC1)CC2 gave A: -10.06%; C: 12.21%. Result for CC(C)CC(NC(=O)CN(C)C(=O)c1ccco1)c1cccs1 (configuration not stated) was A: 3.489%; B: 1.37%. For Cc1cc(C(=O)NCc2cccnc2N2CCCC(O)C2)c(C)o1 (configuration not stated) the result was A: -16.68%; B: 0.8876%; C: -22.9%.

With CC(C)(C)n1ncc2c1NC(=O)CC2c1ccc(C(=O)O)cc1 (configuration not stated) the screen gave A: -12.82%; B: 18.04%; C: 13.49%. For CCOCCC(=O)NCCNc1nccc(C(F)(F)F)n1 the result was A: -0.8871%; B: 10.13%; C: -6.87%. With [H][C@]12C[C@H](NC(=O)c3cnn(C)c3)[C@@]1([H])CN(S(=O)(=O)c1ccc(C)cc1)C2 the screen gave A: -0.6964%; C: -37.87%. With CS(=O)(=O)NC1CCCN(C(=O)COCc2ccccc2)C1 (configuration not stated) the screen gave A: 14.61%; B: 13.68%. O=C(NC1CC1)N1CCN(c2cnccn2)CC1 gave A: -15.26%; B: 27.37%. With COc1ccnc(N2CCN(C(=O)c3cc(C4CC4)[nH]n3)CC2)n1 the screen gave A: 2.193%; B: 9.964%. With COCc1nc(CN2CCOC(CNc3cccnn3)C2)cs1 (configuration not stated) the screen gave A: -3.233%; B: 25.07%; C: -77.07%. CC(C)c1nc(CN2CCN(Cc3ccccn3)CC2)cs1 gave A: 9.637%; B: 7.904%; C: -32.19%.

With Cc1cnccc1-n1nc(C(C)C)nc1CS(C)(=O)=O the screen gave A: 18.76%; B: 10.21%; C: 12.36%. Result for Cc1noc(C)c1C(C)C(=O)N1CCCN(C)c2ccc(Cl)cc21 (configuration not stated) was A: 8.624%; B: 22.52%; C: 23.18%. With CN(C1CCN(c2ccccn2)CC1)S(=O)(=O)c1ccc(F)cc1 the screen gave A: 1.612%; B: 13.69%; C: 20.71%. Result for O=S(=O)(NCC1OCCc2cn(Cc3ccccn3)nc21)C1CC1 (configuration not stated) was B: 12.33%. For CN(C)c1cccc(CNC(=O)Nc2cc(C#N)ccc2Cl)n1 the result was A: 11.09%; B: 9.375%. O=C(NCc1nnc2n1CCCCC2)N(Cc1ccccn1)C1CC1 gave A: -0.6189%; B: 7.065%; C: -1.497%. O=C(O)C(F)(F)F.O=C(c1cccc(O)c1)N1CCC2(CCN2c2ncccn2)C1 (configuration not stated) gave A: 1.113%; C: -47.93%. For Cn1nc2c(cc1=O)CN(CC(=O)NC1CCCCNC1=O)CC2 (configuration not stated) the result was A: -0.3533%; B: 12.63%; C: 10.54%.

CC(C)c1nn(C)cc1CNC1CCOc2ccccc21 (configuration not stated) read B: 13.41%. With CCCN(C(=O)COC)c1nc2c(s1)CCc1c-2cnn1C the screen gave A: 4.127%; B: 9.441%. With COc1ccc2c(c1)C1(CCN(Cc3ccncc3)CC1)N(C)CC2 the screen gave A: 23.04%; B: 19.61%; C: 16.29%. For C[C@]1(O)CN(CC(=O)N2CCCC2)CC[C@@H]1Oc1cccc(F)c1 the result was A: -39.32%; B: 3.059%.

The last 3 entries again:

| SMILES | A | B | C |
|---|---|---|---|
| `CCCN(C(=O)COC)c1nc2c(s1)CCc1c-2cnn1C` | 4.127 | 9.441 | - |
| `COc1ccc2c(c1)C1(CCN(Cc3ccncc3)CC1)N(C)CC2` | 23.04 | 19.61 | 16.29 |
| `C[C@]1(O)CN(CC(=O)N2CCCC2)CC[C@@H]1Oc1cccc(F)c1` | -39.32 | 3.059 | - |